Experimental data: US12144864B2 (Regeneron Pharmaceuticals, Inc., priority 2018, dated 2024)

Assay: peptide synthesis
[1] = conjugation step, HPLC-MS, Agilent 1200 HPLC/6100 SQ, C18 columns, DAD (214 nm and 254 nm), ELSD
[2] = whole synthesis, HPLC-MS, Agilent 1200 HPLC/6100 SQ, C18 columns, DAD (214 nm and 254 nm), ELSD

Substance | conjugation yield (conjugation step) | final HPLC purity [1] | final HPLC purity [2] | step yield (coupling step) | further results
(4S)-4-({2-[(1R,3R)-1-(Acetyloxy)-4-methyl-3-[(2S,3S)-3-methyl-2-{[(2R)-1-methylpiperidin-2-yl]formamido}-N-(pent-4-yn-1-yloxy)pentanamido]pentyl]-1,3-thiazol-4-yl}formamido)-5-(4-{2-[2-(cyclooct-2-yn-1-yloxy)acetamido]acetamido}phenyl)-2,2-dimethylpentanoic acid | 48% | >95% |  |  | 
(S)-4-(2-((1R,3R)-1-Acetoxy-3-((2S,3S)—N-hexyl-3-methyl-2-((R)-1-methylpiperidine-2-carboxamido)pentanamido)-4-methylpentyl)thiazole-4-carboxamido)-5-(3-amino-4-hydroxyphenyl)-2,2-dimethylpentanoic acid |  |  | 100% |  | step yield (late stage modification step): 12%
(2S,4R)-4-({2-[(1R,3R)-1-(Acetyloxy)-3-[(2S,3S)—N-(hex-5-yn-1-yl)-3-methyl-2-{[(2R)-1-methylpiperidin-2-yl]formamido}pentanamido]-4-methylpentyl]-1,3-thiazol-4-yl}formamido)-5-(4-aminophenyl)-2-methylpentanoic acid |  |  | 100% | 30% yield | final HPLC purity (coupling step, Method B): >99%
(S)-4-(2-((1R,3R)-1-acetoxy-4-methyl-3-((2S,3S)-3-methyl-N-(4-(1-methyl-1H-1,2,3-triazol-4-yl)butyl)-2-((R)-1-methylpiperidine-2-carboxamido)pentanamido)pentyl)thiazole-4-carboxamido)-5-(4-aminophenyl)-2,2-dimethylpentanoic acid |  |  | 99% |  | step yield (late stage modification step): 27% yield
(2S,4R)-5-(4-Hydroxyphenyl)-4-(2-((9R,11R)-9-isopropyl-8-((2S,3S)-3-methyl-2-((R)-1-methylpiperidine-2-carboxamido)pentanoyl)-13-oxo-7,12-dioxa-8,14-diazaicosan-11-yl)thiazole-4-carboxamido)-2-methylpentanoic acid |  |  |  | 40% | 
(4S)-4-({2-[(1R,3R)-1-(Acetyloxy)-4-methyl-3-[(2S,3S)-3-methyl-2-{[(2R)-1-methylpiperidin-2-yl]formamido}-N-(pentyloxy)pentanamido]pentyl]-1,3-thiazol-4-yl}formamido)-5-(4-{2-[2-(2-{2-[2-(cyclooct-2-yn-1-yloxy)acetamido]acetamido}acetamido)acetamido]acetamido}phenyl)-2,2-dimethylpentanoic acid | 69% | >99% |  |  | 
(2S,4R)-4-({2-[(1R,3R)-1-(Acetyloxy)-3-[(2S,3S)—N-(hex-5-yn-1-yl)-3-methyl-2-{[(2R)-1-methylpiperidin-2-yl]formamido}pentanamido]-4-methylpentyl]-1,3-thiazol-4-yl}formamido)-5-(4-fluorophenyl)-2-methylpentanoic acid |  |  | 100% | 45% yield | final HPLC purity (coupling step, Method A): >99%
(4S)-4-({2-[(1R,3R)-1-(acetyloxy)-3-[(2S,3S)—N-(hex-5-yn-1-yl)-3-methyl-2-{[(2R)-1-methylpiperidin-2-yl]formamido}pentanamido]-4-methylpentyl]-1,3-thiazol-4-yl}formamido)-5-{4-[(2S)-2-[(2S)-2-[1-(4-{2-azatricyclo[10.4.0.04,^9]hexadeca-1(12),4(9),5,7,13,15-hexaen-10-yn-2-yl}-4-oxobutanamido)-3,6,9,12-tetraoxapentadecan-15-amido]-3-methylbutanamido]propanamido]phenyl}-2,2-dimethylpentanoic acid | 39% | 100% |  |  | 
(4S)-4-({2-[(1R,3R)-1-(Acetyloxy)-3-[(2S,3S)—N-(hex-5-yn-1-yl)-3-methyl-2-{[(2R)-1-methylpiperidin-2-yl]formamido}pentanamido]-4-methylpentyl]-1,3-thiazol-4-yl}formamido)-5-(4-aminophenyl)-2,2-dimethylpentanoic acid |  |  | 100% | 14% yield | final HPLC purity (coupling step, Method A): >99%
